In patent US20130302347A1:
No constants are given. Whether binding was seen depends on the method and setting. Some entries that bind do so weakly or less than the wild type. Sequences can lack the tags named with a protein.

Protein sequences, listed by entry. Tags and fused reporters are not part of them. Lines headed by an entry give the natural chain unless they say otherwise; changes in a name come on top.
UniProt Q6UW32: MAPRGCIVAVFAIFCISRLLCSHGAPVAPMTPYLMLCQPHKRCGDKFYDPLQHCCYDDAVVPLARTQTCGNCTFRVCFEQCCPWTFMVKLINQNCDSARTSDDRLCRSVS

T1: mTMEM149-Fc (mouse TMEM149 extracellular domain with C-terminal human IgG1 Fc) (mouse; human) (UniProt Q3U4N7)
T1 sequence: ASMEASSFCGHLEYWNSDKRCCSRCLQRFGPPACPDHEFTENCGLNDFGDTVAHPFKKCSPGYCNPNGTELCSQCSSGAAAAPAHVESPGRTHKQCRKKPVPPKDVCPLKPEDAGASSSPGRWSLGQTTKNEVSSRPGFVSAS


Assays:
[1] = target: IGFL1 protein preparations in the SPDI library microarray (5 individual preparations) (human) (UniProt Q6UW32); experiment: protein microarray probed with Cy-5 labelled TMEM149-Fc (reverse screen)
[2] = target: IGFL1 protein preparations in the SPDI library microarray (5 individual preparations) (human) (UniProt Q6UW32); experiment: protein microarray (SPDI library), fluorescently labelled probe at 20 µg/ml, intensity at 635 nm normalised to the slide average
[3] = target: T1, mTMEM149-Fc (mouse TMEM149 extracellular domain with C-terminal human IgG1 Fc) (mouse; human); experiment: SPR, mTMEM149-Fc immobilised, fits overlaid
[4] = target: T1, mTMEM149-Fc (mouse TMEM149 extracellular domain with C-terminal human IgG1 Fc) (mouse; human); experiment: sandwich ELISA; plates coated with mTMEM149-Fc capture FLAG-mIGFL, detected with anti-FLAG-HRP

| Binder | binding [1] | binding [2] | binding [3] | binding [4] |
| --- | --- | --- | --- | --- |
| TMEM149-Fc (human TMEM149 extracellular domain with C-terminal human IgG1 Fc) (Fc fusion, not shown: a dimerising Fc or GST) SQYCGRLEYWNPDNKCCSSCLQRFGPPPCPDYEFRENCGLNDHGDFVTPPFRKCSSGQCNPDGAELCSPCGGGAVTPTPAAGGGRTPWRCRERPVPAKGHCPLTPGNPGAPSSQERSSPASSIAWRTPEPVPQQAWPN | binds | binds |  |  |
| FLAG-mIGFL (recombinant mouse IGFL with N-terminal FLAG epitope tag) (ligand, not shown: small tags and cut ends) RKISTFSGPGSWPCNPKCDGRTYNPSEECCVHDTILPFKRINLCGPSCTYRPCFELCCPESYSPKKKFIVKLKVHGERSHCSSSPISRNCKSNKIFHGEDIEDNQLSLRKKSGDQP |  |  | binds | binds |
